Assay results: the supplement of paper PMC8326762, “A Small Molecule Inhibitor of Pex3–Pex19 Interaction Disrupts Glycosome Biogenesis and Causes Lethality in Trypanosoma brucei” (Frontiers in Cell and Developmental Biology, 2021)
Structures can show the parent of a compound that is named as a salt. The list shows a part of the results. The data scatter; read single values as rough.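 Yeast growth was measured as optical density at 600 nm. Two-hybrid strains grew without histidine, so growth depended on Pex3–Pex19 binding. A compound was trypanosome-selective if it reduced growth of the trypanosome-pair strain by over 65% and of the human-pair strain by under 65%.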

Assays:
[1] = test system: Saccharomyces cerevisiae HF7c pdr5Δ; test: general growth inhibition of yeast HF7c pdr5Δ in -Leu -Trp medium, relative to DMSO; higher = stronger general growth inhibition; settings: 100 µM; 24 h
[2] = test system: human PEX3-PEX19 interaction (yeast two-hybrid); test: growth inhibition of yeast two-hybrid strain reporting HsPex3-HsPex19 interaction, relative to DMSO; higher = stronger inhibition of human Pex3-Pex19 interaction / growth; settings: 100 µM; 24 h; 3-aminotriazole 10 mM
[3] = test system: T. brucei Pex3-Pex19 interaction (yeast two-hybrid); test: growth inhibition of yeast two-hybrid strain reporting TbPex3-TbPex19 interaction, relative to DMSO; higher = stronger inhibition of T. brucei Pex3-Pex19 interaction / growth; settings: 100 µM; 24 h

CC[C@@H]1C(=O)OC[C@@H]1Cc1cncn1C [Pilocarpine nitrate]
general growth inhibition [1]: 18.2%
growth inhibition [2]: 3.57%
growth inhibition [3]: 38%

CCNc1nc2c(ncn2[C@H]2C[C@H](O)[C@@H](CO)O2)c(=O)[nH]1 [N2-Ethyl-2'-deoxyguanosine]
general growth inhibition [1]: 41.2%
growth inhibition [2]: 50.2%
growth inhibition [3]: 67.6%

Cc1[nH]c(=O)c(C#N)cc1-c1ccc2nccn2c1 [Olprinone hydrochloride]
general growth inhibition [1]: 56.7%
growth inhibition [2]: 50.5%
growth inhibition [3]: 62.7%

N=C(N)SCCN [2-(2-Aminoethyl)isothiourea dihydrobromide]
general growth inhibition [1]: 34.9%
growth inhibition [2]: 29.4%
growth inhibition [3]: 49%

N=C(N)N/N=C/c1c(Cl)cccc1Cl [Guanabenz acetate]
general growth inhibition [1]: 25.1%
growth inhibition [2]: 33.5%
growth inhibition [3]: 63.3%

C=C1C(=O)O[C@H]2[C@H]1CC/C(C)=C/CC[C@@]1(C)O[C@@H]21 [Parthenolide]
general growth inhibition [1]: 76.7%
growth inhibition [2]: 68.1%
growth inhibition [3]: 67.3%

CCC1(C)CC(=O)NC1=O (configuration not stated) [Ethosuximide]
general growth inhibition [1]: 32.9%
growth inhibition [2]: 37.7%
growth inhibition [3]: 59.6%

CC(C)(NS(=O)(=O)c1ccc(Oc2ccc(F)cc2)cc1)C(=O)NO
general growth inhibition [1]: 30.8%
growth inhibition [2]: 34.7%
growth inhibition [3]: 52.5%

CNC[C@H](O)c1ccc(O)c(O)c1 (racemic) [(±)-Epinephrine hydrochloride]
general growth inhibition [1]: 39.7%
growth inhibition [2]: 47.2%
growth inhibition [3]: 51.6%

Cn1ccc2cc(NC(=O)Nc3cccnc3)ccc21
general growth inhibition [1]: 39.4%
growth inhibition [2]: 39.3%
growth inhibition [3]: 55.7%

CCOC(=O)C1=C(C)NC(C)=C(C(=O)OCC)C1c1c(F)c(F)c(F)c(F)c1F [Nemadipine-A]
general growth inhibition [1]: 68.3%
growth inhibition [2]: 45%
growth inhibition [3]: 60.5%

C[C@]12CCC(=O)C=C1CC[C@@H]1[C@@H]2C(=O)C[C@@]2(C)[C@H]1CC[C@]2(O)C(=O)CO [Cortisone]
general growth inhibition [1]: 8.71%
growth inhibition [2]: 2.46%
growth inhibition [3]: 31.3%

CC(C)(C)c1ccc(C(O)CCCN2CCC(C(O)(c3ccccc3)c3ccccc3)CC2)cc1 (configuration not stated) [Terfenadine]
general growth inhibition [1]: 70.8%
growth inhibition [2]: 76%
growth inhibition [3]: 71.4%

Cl.N[C@@H](CCC(=O)O)C(=O)O [L-Glutamic acid hydrochloride]
general growth inhibition [1]: 24.4%
growth inhibition [2]: 35.3%
growth inhibition [3]: 62.4%

C[N+](C)(C)CCCCCC[N+](C)(C)C [Hexamethonium dichloride]
general growth inhibition [1]: 36.9%
growth inhibition [2]: 41.1%
growth inhibition [3]: 69.1%

CN(C)CCCN1c2ccccc2Sc2ccc(Cl)cc21 [Chlorpromazine hydrochloride]
general growth inhibition [1]: 29.8%
growth inhibition [2]: 30.1%
growth inhibition [3]: 57.5%

C=C[C@@]1(C)CC(=O)[C@]2(O)[C@@]3(C)[C@@H](O)CCC(C)(C)[C@@H]3[C@H](O)[C@H](OC(C)=O)[C@@]2(C)O1 [Forskolin]
general growth inhibition [1]: 35.3%
growth inhibition [2]: 40.9%
growth inhibition [3]: 51.5%

c1ccc(C(NCCNC(c2ccccc2)c2ccccc2)c2ccccc2)cc1
general growth inhibition [1]: 46.4%
growth inhibition [2]: 42.1%
growth inhibition [3]: 57.5%

CC(=O)c1ccc2c(c1)N(CCCN(C)C)c1ccccc1S2 [Acepromazine maleate]
general growth inhibition [1]: 44.4%
growth inhibition [2]: 44.9%
growth inhibition [3]: 58.5%

c1cnc2cc3c(cc2n1)[C@@H]1CNC[C@H]3C1 [Varenicline tartrate]
general growth inhibition [1]: 44.3%
growth inhibition [2]: 43.5%
growth inhibition [3]: 60.8%

C[C@H](CCC(=O)NCCS(=O)(=O)O)[C@H]1CC[C@H]2[C@@H]3[C@H](O)C[C@@H]4C[C@H](O)CC[C@]4(C)[C@H]3C[C@H](O)[C@]12C [Sodium Taurocholate hydrate]
general growth inhibition [1]: 44.5%
growth inhibition [2]: 39.6%
growth inhibition [3]: 53%

CC[C@@H]1C(=O)OC[C@@H]1Cc1cncn1C [(+)-Pilocarpine hydrochloride]
general growth inhibition [1]: 51.6%
growth inhibition [2]: 47%
growth inhibition [3]: 64.2%

CO/N=C(\C(=O)N[C@@H]1C(=O)N2C(C(=O)O)=C(COC(C)=O)CS[C@H]12)c1csc(N)n1 [Cefotaxime sodium]
general growth inhibition [1]: 48.7%
growth inhibition [2]: 48.2%
growth inhibition [3]: 65.6%

CNCCC(Oc1ccc(C(F)(F)F)cc1)c1ccccc1 (configuration not stated) [Fluoxetine hydrochloride]
general growth inhibition [1]: -1.65%
growth inhibition [2]: -8.98%
growth inhibition [3]: 19.3%

O=C(NOC[C@H](O)CO)c1ccc(F)c(F)c1Nc1ccc(I)cc1F
general growth inhibition [1]: 33.5%
growth inhibition [2]: 42.2%
growth inhibition [3]: 52%

Cc1cccc(C(=O)NCN2CCN(c3ccccc3C#N)CC2)c1 [PD 168,077 maleate]
general growth inhibition [1]: 19.3%
growth inhibition [2]: 16.3%
growth inhibition [3]: 44.5%

CS(=O)(=O)c1cccc(CNc2nc(Nc3ccc4c(c3)CCC(=O)N4)ncc2C(F)(F)F)c1
general growth inhibition [1]: 41.6%
growth inhibition [2]: 46.6%
growth inhibition [3]: 58.1%

COc1cc2nc(N3CCN(C(=O)c4ccco4)CC3)nc(N)c2cc1OC [Prazosin hydrochloride]
general growth inhibition [1]: -4.62%
growth inhibition [2]: -15%
growth inhibition [3]: 2%

C[N+](C)(C)CC=O [Betaine aldehyde chloride]
general growth inhibition [1]: 51%
growth inhibition [2]: 38.2%
growth inhibition [3]: 60.4%
